Data on 35 molecules can be found in PubChem BioAssay AID2685 (National Center for Advancing Translational Sciences (NCATS), 2010).

The other results are listed elsewhere or left out. Further columns of the screen follow, without active or inactive calls. The list favours compounds with an active or inconclusive main result. The note in brackets gives the kind of curve behind each potency; many fits are weak.

The assay can be described thus: qHTS Assay for Lipid Storage Modulators in Drosophila S3 Cells.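 As to cell number change: cells counted by Cell Tracker Red CMTPX staining in the red channel.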 The conditions noted are these: BODIPY lipid droplet fluorescence, 18-24 h; for cell number change: measured here: cell count max response, cells fed with added oleic acid. Put shortly:
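Drosophila S3 cells got compounds at several concentrations plus oleic acid (400 uM solution). Laser-scanning cytometry with 488 nm excitation read lipid droplets at 500-530 nm and cells at 575-640 nm. Percent activity was relative to 20 uM Triacsin C.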

Where [1] appears, read: measured here: lipid fluorescence (Fed channel) AC50, cells fed with added oleic acid.
Where [2] appears, read: measured here: cell number channel AC50, cells fed with added oleic acid.

The AC50 is the concentration at which the activity in the assay is half-maximal.

In the case of `COCC(C)NCc1cccc(OC)c1OC` (stereo not drawn), the AC50 under setting [1] is 0.092 µM [rising, full curve].
Take `O=C(O)C1Sc2[nH]c(=O)sc2C2c3cc(Br)ccc3OC(=O)C12` (stereo not drawn): the cell number change is -11.8%.
On to `CCOC(=O)c1ccc(NC(=O)c2ccc(OC(C)C)c(OC)c2)cc1`, for which the cell number change is 99.1%. Also, under setting [2], the half-maximal activity concentration (AC50) is 20.6 µM [rising, partial curve]. Besides, under setting [1], the AC50 was 20.6 µM [rising, partial curve].
In the case of `O=C(CSc1nnc2ccccn12)NC(=O)Cc1ccccc1`, the AC50 under setting [2] is 0.103 µM [rising, single point].
For the molecule `CCOC(=O)C(NC(=O)c1ccccc1)=C1C=C(C)OC(C)=C1`, the cell number change was determined as 2.5%. Moreover, the AC50 under setting [1] is 0.00461 µM [falling, full curve, poor fit].
In the case of `CC(=O)NC(Cc1c[nH]c2ccccc12)C(=O)N/N=C/c1ccccc1` (stereo not drawn), the cell number change is -31%. Moreover, under setting [2], the concentration at half-maximal activity (AC50) is 9.2 µM [falling, partial curve]. Also, the AC50 under setting [1] was 13 µM [falling, partial curve].
Take `CC(=O)c1cccc(NC(=S)Nc2ccc(F)cc2)c1`: the cell number change was -7.09%. The AC50 under setting [1] was 0.411 µM [falling, single point].
As for `O=C(CCc1nnc(CCC2CCCCC2)o1)NCCn1cccn1`, the cell number change was -3.36%.
`O=C(O)CSc1nnc(Cn2cnc3ccccc32)n1CCc1ccccc1`: the cell number change turned out to be 3.91%.
On to `Cc1ccc2nc(-c3ccccc3)cc(C(=O)N(C)CC(=O)Nc3ccccc3Br)c2c1`, for which the cell number change stood at 66.3%. Moreover, the AC50 under setting [2] is 5.8 µM [rising, partial curve].
As for `CC(=O)n1cc([C@@H]2C=C(C(=O)N3CCN(Cc4ccc5c(c4)OCO5)CC3)O[C@H](OCc3ccc(CO)cc3)C2)c2ccccc21`, the cell number change was -9.08%. Also, the AC50 under setting [1] was 32.6 µM [falling, single point].
As to `Cc1ccc2nc(NC(=O)c3ccc(S(=O)(=O)N4CCCc5ccccc54)cc3)sc2c1`, the cell number change was -2.04%.
As for `COc1ccc(OC)c(-c2nn(-c3ccccc3)cc2C(=O)NCC(c2ccco2)N2CCCC2)c1` (stereo not drawn), the cell number change is -0.618%. Further, the AC50 under setting [1] was 29.1 µM [falling, single point].
For `COc1cc(OC)cc(C(=O)Nc2ccc(S(=O)(=O)Nc3ccccn3)cc2)c1`, the cell number change was determined as 31.3%. In addition, the AC50 under setting [1] was 0.58 µM [rising, single point].
`O=C1c2ccc3c4c(ccc(c24)C(=O)N1c1cccc(O)c1)C(=O)N(c1cccc(O)c1)C3=O`: under setting [1], the AC50 is 3.66 µM [falling, single point].
With `COc1ccc(OCC(=O)Nc2ccc3c(c2)nc(CCN2CCC(C)CC2)n3C)cc1`, the cell number change is -11.8%. Also, the AC50 under setting [1] is 0.58 µM [falling, single point].
Regarding `O=C(C[C@H]1C(=O)N(C2CCCCC2)C[C@@H]1Cc1ccccc1)Nc1ccccc1`, the cell number change was determined as 20.7%. Also, the half-maximal activity concentration (AC50) under setting [1] is 29.1 µM [falling, single point].
As to `CC(=O)Nc1ccc(-c2cc(-c3ccc(NC(C)=O)cc3)nc(-c3ccccc3)n2)cc1`, the cell number change was -21.2%. For the same molecule, the AC50 under setting [1] was 3.26 µM [falling, partial curve].
On to `CCN1CCN(CCCNC(=O)C2c3ccccc3C(=O)N(C)C2c2ccc(OC)cc2)CC1` (stereo not drawn), for which the cell number change was -23.2%. In addition, the AC50 under setting [1] was 0.0058 µM [falling, full curve, poor fit].
Consider `COc1cccc(-c2ccc(NC(=O)C3CCCN(Cc4ccc(CO)o4)C3)cc2)c1` (stereo not drawn), for which the cell number change turned out to be 4.11%. In addition, under setting [1], the concentration at half-maximal activity (AC50) is 0.259 µM [falling, full curve].
`O=C(Nc1cccc(Cl)c1)c1cccc(N2C(=O)C3CC=CCC3C2=O)c1` (stereo not drawn): the cell number change is -6.67%. Also, under setting [1], the concentration at half-maximal activity (AC50) is 13 µM [falling, partial curve, poor fit].
As for `COc1ccccc1N(C)S(=O)(=O)c1ccc(Cl)c(C(=O)N2CCC2)c1`, the AC50 under setting [2] is 0.116 µM [rising, full curve, poor fit].
Take `COC(=O)[C@@]12CCCCN1[C@H](c1ccc(-c3ccc(OC)cc3)c(OC)c1)[C@@H]1C(=O)N(C)C(=O)[C@@H]12`: the cell number change was -43.5%. Moreover, the AC50 under setting [2] was 9.2 µM [falling, partial curve]. Also, under setting [1], the AC50 was 23.1 µM [falling, single point].
Regarding `CCOC(=O)c1ccccc1NC(=O)CSc1nc2ccccc2o1`, the cell number change was -3.02%. Further, the AC50 under setting [1] was 8.2 µM [rising, partial curve].
For the molecule `COc1ccccc1-c1cc(C(=O)Nc2c(C)n(C)n(-c3ccccc3)c2=O)no1`, the cell number change is -30.5%. Besides, the AC50 under setting [2] was 13 µM [falling, partial curve, poor fit]. Also, the AC50 under setting [1] is 23.1 µM [falling, partial curve, poor fit].
Take `Cc1ccc(S(=O)(=O)N(C)C)cc1NC(=O)Nc1ccccc1F`: the AC50 is 7.31 µM [falling, single point] under setting [2] and 2.31 µM [falling, partial curve, poor fit] under setting [1].
On to `Cc1cccc(C(=O)Nc2ccc(C(=O)/C=C/c3ccncc3)cc2)c1`, for which, under setting [1], the AC50 was 10.3 µM [falling, single point].
As to `CC[C@]1(c2ccccc2OC)ON(c2ccccc2C(F)(F)F)C1=O`, the cell number change was -87.8%. The AC50 under setting [2] is 5.8 µM [falling, partial curve]. Also, the half-maximal activity concentration (AC50) under setting [1] is 4.61 µM [falling, single point].
On to `O=C(NC1CCCCC1)c1cc2cc(Br)ccc2o1`, for which the cell number change was -31%. Moreover, the AC50 under setting [2] is 7.31 µM [falling, partial curve, poor fit]. Further, under setting [1], the AC50 is 29.1 µM [falling, single point].
Regarding `COc1ccc(N2CCN(Cc3nc4cc(Cl)ccc4c(=O)[nH]3)CC2)cc1`, the cell number change stood at 9.85%. Under setting [2], the AC50 was 6.51 µM [falling, single point]. Moreover, the AC50 under setting [1] is 5.8 µM [falling, full curve].
Regarding `O=C(O)C(Cc1ccccc1)NS(=O)(=O)c1ccc(Cl)cc1` (stereo not drawn), the cell number change stood at 11.9%. Also, under setting [1], the AC50 was 0.0731 µM [rising, full curve, poor fit].
Regarding `O=C(CN1CCN(C/C=C/c2ccccc2)CC1)Nc1ccccc1C(=O)NC1CC1`, the cell number change amounted to 14.1%. The half-maximal activity concentration (AC50) under setting [1] was 7.31 µM [falling, partial curve, poor fit].
For the molecule `Cc1cccc(N(C)S(=O)(=O)c2csc(C(N)=O)c2)c1`, the AC50 under setting [1] is 0.651 µM [falling, single point].
With `O=C(O)c1cccc(CSc2nnc(-c3ccco3)o2)c1`, the cell number change was -71.7%. The half-maximal activity concentration (AC50) under setting [2] was 2.59 µM [falling, partial curve, poor fit]. Besides, the half-maximal activity concentration (AC50) under setting [1] is 0.411 µM [falling, full curve].
Consider `Cc1ccc(S(=O)(=O)N2[C@@H](c3ccccc3)C(C(=O)O)=CC[C@H]2c2cccc(Cl)c2)cc1`, for which the cell number change came to 18.8%. For the same molecule, the half-maximal activity concentration (AC50) under setting [1] is 0.731 µM [falling, single point].
